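The test systems are human melanoma cell lines, treated with one drug for 72 h and then stained and imaged. Each value is the cleaved-PARP-positive fraction of nuclei relative to DMSO-treated wells, in %, so that 100 equals the control and higher values mean more apoptosis. Concentrations were fixed for each drug; these are the higher of two levels. The file gives one value for each drug and line, without errors, so small differences may be noise. The marker varies much from line to line, for technical or biological reasons.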 This is part of the screen, not chosen by result.

Drugs:
vatalanib (10 µM): Clc1ccc(Nc2nnc(Cc3ccncc3)c3ccccc23)cc1
docetaxel (0.0005 µM): CC(=O)O[C@@]12CO[C@@H]1C[C@H](O)[C@@]1(C)C(=O)[C@H](O)C3=C(C)[C@@H](OC(=O)[C@H](O)[C@@H](NC(=O)OC(C)(C)C)c4ccccc4)C[C@@](O)([C@@H](OC(=O)c4ccccc4)[C@H]21)C3(C)C
GSK650394 (0.8 µM): O=C(O)c1ccc(-c2c[nH]c3ncc(-c4ccccc4)cc23)cc1C1CCCC1
VX-702 (2 µM): NC(=O)c1ccc(N(C(N)=O)c2c(F)cccc2F)nc1-c1ccc(F)cc1F
CX-4945 (2 µM): O=C(O)c1ccc2c(c1)nc(Nc1cccc(Cl)c1)c1ccncc12
stibogluconate (10 µM): O=C(O)[C@@H]1[O][Sb](=[O])([O][Sb]2(=[O])[O][C@H]([C@H](O)CO)[C@H](O)[C@H](C(=O)O)[O]2)[O][C@H]([C@H](O)CO)[C@@H]1O (stereo partly shown)
erlotinib (4 µM): C#Cc1cccc(Nc2ncnc3cc(OCCOC)c(OCCOC)cc23)c1
T0901317 (7 µM): O=S(=O)(c1ccccc1)N(CC(F)(F)F)c1ccc(C(O)(C(F)(F)F)C(F)(F)F)cc1
Src-I1 (10 µM): COc1cc2ncnc(Nc3ccc(Oc4ccccc4)cc3)c2cc1OC
tanespimycin (0.01 µM): C=CCNC1=C2C[C@@H](C)C[C@H](OC)[C@H](O)[C@@H](C)/C=C(\C)[C@H](OC(N)=O)[C@@H](OC)/C=C\C=C(/C)C(=O)NC(=CC1=O)C2=O
GW441756 (2 µM): Cn1cc(/C=C2\C(=O)Nc3cccnc32)c2ccccc21
GW2580 (5 µM): COc1ccc(COc2ccc(Cc3cnc(N)nc3N)cc2OC)cc1
GW0742 (10 µM): Cc1cc(SCc2sc(-c3ccc(C(F)(F)F)c(F)c3)nc2C)ccc1OCC(=O)O
dorsomorphin (2 µM): c1cc(-c2cnn3cc(-c4ccc(OCCN5CCCCC5)cc4)cnc23)ccn1
L-779450 (1 µM): Oc1cc(-c2nc(-c3ccccc3)[nH]c2-c2ccncc2)ccc1Cl
RKI-983 (2 µM): C[C@@H](N)c1ccc(C(=O)Nc2ccnc3[nH]ccc23)cc1
nutlin-3 (0.5 µM): COc1ccc(C2=N[C@@H](c3ccc(Cl)cc3)[C@@H](c3ccc(Cl)cc3)N2C(=O)N2CCNC(=O)C2)c(OC(C)C)c1
lestaurtinib (0.02 µM): C[C@]12O[C@H](C[C@]1(O)CO)n1c3ccccc3c3c4c(c5c6ccccc6n2c5c31)CNC4=O
enzastaurin (4 µM): Cn1cc(C2=C(c3cn(C4CCN(Cc5ccccn5)CC4)c4ccccc34)C(=O)NC2=O)c2ccccc21
TCS401 (8.33 µM): O=C(O)C(=O)Nc1sc2c(c1C(=O)O)CCNC2
dasatinib (0.02 µM): Cc1nc(Nc2ncc(C(=O)Nc3c(C)cccc3Cl)s2)cc(N2CCN(CCO)CC2)n1
fingolimod (10 µM): CCCCCCCCc1ccc(CCC(N)(CO)CO)cc1
ENMD-2076 (0.2 µM): Cc1cc(Nc2cc(N3CCN(C)CC3)nc(/C=C/c3ccccc3)n2)n[nH]1
etoposide (0.1 µM): COc1cc([C@@H]2c3cc4c(cc3[C@@H](O[C@@H]3O[C@@H]5CO[C@@H](C)O[C@H]5[C@H](O)[C@H]3O)[C@H]3COC(=O)[C@H]23)OCO4)cc(OC)c1O
A-769662 (10 µM): N#Cc1c(O)c2c(-c3ccc(-c4ccccc4O)cc3)csc2[nH]c1=O
IMD-0354 (0.08 µM): O=C(Nc1cc(C(F)(F)F)cc(C(F)(F)F)c1)c1cc(Cl)ccc1O
BI-78D3 (1 µM): O=c1[nH]nc(Sc2ncc([N+](=O)[O-])s2)n1-c1ccc2c(c1)OCCO2
AS-252424 (5 µM): O=C1NC(=O)/C(=C/c2ccc(-c3ccc(F)cc3O)o2)S1

{"compound": "etoposide", "SK-MEL-28": 48.2, "G-361": 92.9, "UACC-62": 190, "COLO 800": 109, "WM3619": 136, "COLO 792": 83.1, "MZ2-MEL": 189, "LOX IMVI": 453}
{"compound": "IMD-0354", "SK-MEL-28": 40.5, "G-361": 70.6, "UACC-62": 160, "COLO 800": 38.6, "WM3619": 115, "COLO 792": 68.1, "MZ2-MEL": 134, "LOX IMVI": 94.4}
{"compound": "enzastaurin", "SK-MEL-28": 105, "G-361": 117, "UACC-62": 238, "COLO 800": 83.0, "WM3619": 72.6, "COLO 792": 110, "MZ2-MEL": 181, "LOX IMVI": 105}
{"compound": "T0901317", "SK-MEL-28": 81.0, "G-361": 78.3, "UACC-62": 191, "COLO 800": 66.3, "WM3619": 97.1, "COLO 792": 96.9, "MZ2-MEL": 129, "LOX IMVI": 53.3}
{"compound": "nutlin-3", "SK-MEL-28": 168, "G-361": 107, "UACC-62": 240, "COLO 800": 94.9, "WM3619": 70.4, "COLO 792": 67.1, "MZ2-MEL": 84.5, "LOX IMVI": 104}
{"compound": "docetaxel", "SK-MEL-28": 798, "G-361": 972, "UACC-62": 313, "COLO 800": 336, "WM3619": 153, "COLO 792": 713, "MZ2-MEL": 882, "LOX IMVI": 101}
{"compound": "GW441756", "SK-MEL-28": 60.9, "G-361": 117, "UACC-62": 94.8, "COLO 800": 83.2, "WM3619": 94.4, "COLO 792": 77.9, "MZ2-MEL": 64.6, "LOX IMVI": 132}
{"compound": "ENMD-2076", "SK-MEL-28": 77.0, "G-361": 69.0, "UACC-62": 196, "COLO 800": 59.9, "WM3619": 90.5, "COLO 792": 105, "MZ2-MEL": 104, "LOX IMVI": 75.8}
{"compound": "GSK650394", "SK-MEL-28": 41.3, "G-361": 180, "UACC-62": 56.6, "COLO 800": 141, "WM3619": 135, "COLO 792": 153, "MZ2-MEL": 87.6, "LOX IMVI": 155}
{"compound": "fingolimod", "SK-MEL-28": 1120, "G-361": 6460, "UACC-62": 384, "COLO 800": 142, "WM3619": 3120, "COLO 792": 12300, "MZ2-MEL": 4380, "LOX IMVI": 580}
{"compound": "GW0742", "SK-MEL-28": 103, "G-361": 79.9, "UACC-62": 198, "COLO 800": 118, "WM3619": 120, "COLO 792": 32.2, "MZ2-MEL": 110, "LOX IMVI": 324}
{"compound": "dasatinib", "SK-MEL-28": 238, "G-361": 88.7, "UACC-62": 261, "COLO 800": 320, "WM3619": 128, "COLO 792": 84.3, "MZ2-MEL": 131, "LOX IMVI": 443}
{"compound": "BI-78D3", "SK-MEL-28": 188, "G-361": 161, "UACC-62": 34.5, "COLO 800": 176, "WM3619": 140, "COLO 792": 82.1, "MZ2-MEL": 160, "LOX IMVI": 110}
{"compound": "erlotinib", "SK-MEL-28": 189, "G-361": 121, "UACC-62": 207, "COLO 800": 84.7, "WM3619": 107, "COLO 792": 173, "MZ2-MEL": 34.9, "LOX IMVI": 143}
{"compound": "vatalanib", "SK-MEL-28": 135, "G-361": 173, "UACC-62": 277, "COLO 800": 129, "WM3619": 168, "COLO 792": 73.5, "MZ2-MEL": 105, "LOX IMVI": 171}
{"compound": "lestaurtinib", "SK-MEL-28": 220, "G-361": 125, "UACC-62": 152, "COLO 800": 136, "WM3619": 140, "COLO 792": 91.2, "MZ2-MEL": 38.1, "LOX IMVI": 126}
{"compound": "TCS401", "SK-MEL-28": 184, "G-361": 170, "UACC-62": 122, "COLO 800": 95.6, "WM3619": 103, "COLO 792": 59.6, "MZ2-MEL": 283, "LOX IMVI": 22.7}
{"compound": "L-779450", "SK-MEL-28": 257, "G-361": 326, "UACC-62": 567, "COLO 800": 45.4, "WM3619": 115, "COLO 792": 86.5, "MZ2-MEL": 120, "LOX IMVI": 120}
{"compound": "GW2580", "SK-MEL-28": 158, "G-361": 29.4, "UACC-62": 175, "COLO 800": 100, "WM3619": 108, "COLO 792": 83.5, "MZ2-MEL": 149, "LOX IMVI": 189}
{"compound": "VX-702", "SK-MEL-28": 88.9, "G-361": 60.0, "UACC-62": 204, "COLO 800": 7.0, "WM3619": 161, "COLO 792": 42.0, "MZ2-MEL": 34.4, "LOX IMVI": 107}
{"compound": "tanespimycin", "SK-MEL-28": 68.4, "G-361": 315, "UACC-62": 253, "COLO 800": 27.8, "WM3619": 187, "COLO 792": 117, "MZ2-MEL": 172, "LOX IMVI": 53.9}
{"compound": "CX-4945", "SK-MEL-28": 79.2, "G-361": 189, "UACC-62": 253, "COLO 800": 125, "WM3619": 133, "COLO 792": 158, "MZ2-MEL": 121, "LOX IMVI": 457}
{"compound": "stibogluconate", "SK-MEL-28": 56.8, "G-361": 106, "UACC-62": 153, "COLO 800": 125, "WM3619": 75.3, "COLO 792": 99.0, "MZ2-MEL": 48.9, "LOX IMVI": 134}
{"compound": "RKI-983", "SK-MEL-28": 394, "G-361": 165, "UACC-62": 296, "COLO 800": 132, "WM3619": 69.0, "COLO 792": 190, "MZ2-MEL": 825, "LOX IMVI": 64.7}
{"compound": "AS-252424", "SK-MEL-28": 102, "G-361": 77.2, "UACC-62": 140, "COLO 800": 74.5, "WM3619": 103, "COLO 792": 174, "MZ2-MEL": 235, "LOX IMVI": 72.4}
{"compound": "A-769662", "SK-MEL-28": 74.1, "G-361": 73.7, "UACC-62": 76.7, "COLO 800": 175, "WM3619": 108, "COLO 792": 81.2, "MZ2-MEL": 22.8, "LOX IMVI": 104}
{"compound": "Src-I1", "SK-MEL-28": 203, "G-361": 168, "UACC-62": 439, "COLO 800": 81.6, "WM3619": 113, "COLO 792": 81.8, "MZ2-MEL": 74.8, "LOX IMVI": 163}
{"compound": "dorsomorphin", "SK-MEL-28": 98.0, "G-361": 219, "UACC-62": 131, "COLO 800": 48.2, "WM3619": 105, "COLO 792": 112, "MZ2-MEL": 97.3, "LOX IMVI": 131}

3 of the entries, repeated:

{"compound": "ENMD-2076", "SK-MEL-28": 77.0, "G-361": 69.0, "UACC-62": 196, "COLO 800": 59.9, "WM3619": 90.5, "COLO 792": 105, "MZ2-MEL": 104, "LOX IMVI": 75.8}
{"compound": "docetaxel", "SK-MEL-28": 798, "G-361": 972, "UACC-62": 313, "COLO 800": 336, "WM3619": 153, "COLO 792": 713, "MZ2-MEL": 882, "LOX IMVI": 101}
{"compound": "vatalanib", "SK-MEL-28": 135, "G-361": 173, "UACC-62": 277, "COLO 800": 129, "WM3619": 168, "COLO 792": 73.5, "MZ2-MEL": 105, "LOX IMVI": 171}

Source: doi:10.1371/journal.pone.0140310, primary screening data, rounded.